For four molecules, binding results are on record in publication PMC3597514.

Numbering of substitutions follows the chain as printed. These are yes or no findings as the source states them, for the method shown. For some assays here: A result given as binding can be weak or reduced; the word gives no strength. For some assays here: Sequences can lack the tags named with a protein. For some assays here: Binding seen in cells or lysates may run through a third protein.

Assay [1] addresses T1, full-length N (yeast two-hybrid fusion) (not stated ("Nicotiana", "tobacco")) (UniProt Q40392).
T1 sequence: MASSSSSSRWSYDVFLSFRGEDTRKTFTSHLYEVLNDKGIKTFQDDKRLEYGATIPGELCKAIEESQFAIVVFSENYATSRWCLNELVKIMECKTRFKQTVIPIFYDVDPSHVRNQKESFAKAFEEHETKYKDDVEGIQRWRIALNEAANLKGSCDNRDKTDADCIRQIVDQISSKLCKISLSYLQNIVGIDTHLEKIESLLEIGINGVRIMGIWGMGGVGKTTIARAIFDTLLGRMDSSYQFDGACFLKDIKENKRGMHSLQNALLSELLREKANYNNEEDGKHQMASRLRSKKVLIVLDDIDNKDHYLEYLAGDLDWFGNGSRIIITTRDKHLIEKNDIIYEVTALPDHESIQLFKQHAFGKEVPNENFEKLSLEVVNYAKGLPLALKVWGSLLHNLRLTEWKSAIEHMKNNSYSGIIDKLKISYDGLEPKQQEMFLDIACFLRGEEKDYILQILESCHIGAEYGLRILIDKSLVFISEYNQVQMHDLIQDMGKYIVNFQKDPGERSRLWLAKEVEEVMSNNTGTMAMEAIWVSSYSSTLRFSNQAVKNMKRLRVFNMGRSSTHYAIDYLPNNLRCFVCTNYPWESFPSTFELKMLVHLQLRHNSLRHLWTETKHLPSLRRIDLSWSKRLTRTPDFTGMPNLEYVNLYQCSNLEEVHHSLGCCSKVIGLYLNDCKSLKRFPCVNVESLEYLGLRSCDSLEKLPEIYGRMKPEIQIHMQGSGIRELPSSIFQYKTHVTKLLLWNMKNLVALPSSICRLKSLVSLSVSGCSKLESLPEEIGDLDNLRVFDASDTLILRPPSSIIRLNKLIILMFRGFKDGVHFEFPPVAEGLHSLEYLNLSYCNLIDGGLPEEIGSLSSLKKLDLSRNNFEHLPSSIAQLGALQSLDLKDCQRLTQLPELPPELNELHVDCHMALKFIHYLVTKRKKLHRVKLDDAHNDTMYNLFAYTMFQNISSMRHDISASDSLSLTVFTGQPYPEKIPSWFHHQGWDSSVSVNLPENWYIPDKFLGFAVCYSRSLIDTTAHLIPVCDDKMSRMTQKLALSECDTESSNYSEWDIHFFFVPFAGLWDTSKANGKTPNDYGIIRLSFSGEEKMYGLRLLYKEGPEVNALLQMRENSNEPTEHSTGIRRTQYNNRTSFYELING
The assay can be described thus: two-hybrid; yeast two-hybrid library screen with N; 14 clones found.

Assay [2] addresses T2, N TIR domain (yeast two-hybrid fusion) (not stated ("Nicotiana", "tobacco")) (UniProt Q40392).
T2 sequence: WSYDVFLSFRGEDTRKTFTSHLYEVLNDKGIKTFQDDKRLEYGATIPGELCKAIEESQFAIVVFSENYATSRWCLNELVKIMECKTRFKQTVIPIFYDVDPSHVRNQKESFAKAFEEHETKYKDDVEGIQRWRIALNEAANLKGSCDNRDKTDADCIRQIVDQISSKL
The assay can be described thus: two-hybrid; directed yeast two-hybrid; growth of yeast on media lacking leucine.

Assay [3] has as its target T1, full-length N (yeast two-hybrid fusion) (not stated ("Nicotiana", "tobacco")). The description is as above.
Assay [4] deals with avrRps4-HA (Pseudomonas syringae). As to the kind of experiment: co-IP; N. benthamiana leaves co-expressing N and the HA-tagged effector; anti-HA agarose beads; extraction buffer with 150 mM NaCl; four washes with 300 mM NaCl and 0.2% Triton; blot for Myc.
Assay [5] has as its target rNbSPL6-HA (N. benthamiana). As to the kind of experiment: co-IP; N. benthamiana leaves co-expressing N and the HA-tagged protein, tCFP-p50-U1 infiltrated 8 or 12 h later; anti-HA agarose beads, 2 h at 4°C; buffer with 100 mM NaCl, 20 mM Tris pH 7.5, 0.1% Triton; washes with 200 mM NaCl; blot for Myc.
Assay [6] concerns the target NbSPL6-Yc (N. benthamiana). As to the kind of experiment: split reporter; BiFC (split citrine) in N. benthamiana leaf cells, tCFP-p50-U1 infiltrated 8-12 h after N and NbSPL6; confocal microscopy 44 to 50 h after infiltration.
Assay [7] deals with NbSPL6-Yc (N. benthamiana). The assay can be described thus: split reporter; BiFC (split citrine) in N. benthamiana leaf cells in the presence of the full-length 126 kD TMV-U1 replicase (p126-U1-Cerulean).

In the case of “NbSPL6 (yeast two-hybrid fusion) (N. benthamiana)”, the binding entry in assay [1], in assay [2] and in assay [3] was “binds” each time.

B1: gN-6xMyc (receptor, UniProt Q40392 1-1144)
chain: T1 sequence
For the molecule B1, the binding result is reported as “no binding” in assay [4] and “binds” in assay [5].

B2: gN^GK221-222AA-6xMyc (receptor, UniProt Q40392 1-1144)
chain: T1 sequence with G221A, K222A
Consider B2, for which the binding entry in assay [4] is given as “no binding”.

B3: gN-Yn (receptor, UniProt Q40392 1-1144)
chain: T1 sequence
Take B3: the binding entry in assay [6] and in assay [7] was “binds” throughout.
